Assay results published in publication PMC8273881.
Like-named read-outs stand apart in the source and are kept apart here. These are yes or no findings as the source states them, for the method shown. For some assays here: In cells and extracts the contact can be indirect. Some binding calls cover weakened binding; strength is not graded here. Values belong to the molecule of their own block, whether it stands above or below them.

By UniProt entry, the sequences of proteins in these tests, tags left out. Where a name states a change or a piece, a line headed by the entry shows the natural chain unless it says otherwise. Residues count along the entry.
UniProt P21333: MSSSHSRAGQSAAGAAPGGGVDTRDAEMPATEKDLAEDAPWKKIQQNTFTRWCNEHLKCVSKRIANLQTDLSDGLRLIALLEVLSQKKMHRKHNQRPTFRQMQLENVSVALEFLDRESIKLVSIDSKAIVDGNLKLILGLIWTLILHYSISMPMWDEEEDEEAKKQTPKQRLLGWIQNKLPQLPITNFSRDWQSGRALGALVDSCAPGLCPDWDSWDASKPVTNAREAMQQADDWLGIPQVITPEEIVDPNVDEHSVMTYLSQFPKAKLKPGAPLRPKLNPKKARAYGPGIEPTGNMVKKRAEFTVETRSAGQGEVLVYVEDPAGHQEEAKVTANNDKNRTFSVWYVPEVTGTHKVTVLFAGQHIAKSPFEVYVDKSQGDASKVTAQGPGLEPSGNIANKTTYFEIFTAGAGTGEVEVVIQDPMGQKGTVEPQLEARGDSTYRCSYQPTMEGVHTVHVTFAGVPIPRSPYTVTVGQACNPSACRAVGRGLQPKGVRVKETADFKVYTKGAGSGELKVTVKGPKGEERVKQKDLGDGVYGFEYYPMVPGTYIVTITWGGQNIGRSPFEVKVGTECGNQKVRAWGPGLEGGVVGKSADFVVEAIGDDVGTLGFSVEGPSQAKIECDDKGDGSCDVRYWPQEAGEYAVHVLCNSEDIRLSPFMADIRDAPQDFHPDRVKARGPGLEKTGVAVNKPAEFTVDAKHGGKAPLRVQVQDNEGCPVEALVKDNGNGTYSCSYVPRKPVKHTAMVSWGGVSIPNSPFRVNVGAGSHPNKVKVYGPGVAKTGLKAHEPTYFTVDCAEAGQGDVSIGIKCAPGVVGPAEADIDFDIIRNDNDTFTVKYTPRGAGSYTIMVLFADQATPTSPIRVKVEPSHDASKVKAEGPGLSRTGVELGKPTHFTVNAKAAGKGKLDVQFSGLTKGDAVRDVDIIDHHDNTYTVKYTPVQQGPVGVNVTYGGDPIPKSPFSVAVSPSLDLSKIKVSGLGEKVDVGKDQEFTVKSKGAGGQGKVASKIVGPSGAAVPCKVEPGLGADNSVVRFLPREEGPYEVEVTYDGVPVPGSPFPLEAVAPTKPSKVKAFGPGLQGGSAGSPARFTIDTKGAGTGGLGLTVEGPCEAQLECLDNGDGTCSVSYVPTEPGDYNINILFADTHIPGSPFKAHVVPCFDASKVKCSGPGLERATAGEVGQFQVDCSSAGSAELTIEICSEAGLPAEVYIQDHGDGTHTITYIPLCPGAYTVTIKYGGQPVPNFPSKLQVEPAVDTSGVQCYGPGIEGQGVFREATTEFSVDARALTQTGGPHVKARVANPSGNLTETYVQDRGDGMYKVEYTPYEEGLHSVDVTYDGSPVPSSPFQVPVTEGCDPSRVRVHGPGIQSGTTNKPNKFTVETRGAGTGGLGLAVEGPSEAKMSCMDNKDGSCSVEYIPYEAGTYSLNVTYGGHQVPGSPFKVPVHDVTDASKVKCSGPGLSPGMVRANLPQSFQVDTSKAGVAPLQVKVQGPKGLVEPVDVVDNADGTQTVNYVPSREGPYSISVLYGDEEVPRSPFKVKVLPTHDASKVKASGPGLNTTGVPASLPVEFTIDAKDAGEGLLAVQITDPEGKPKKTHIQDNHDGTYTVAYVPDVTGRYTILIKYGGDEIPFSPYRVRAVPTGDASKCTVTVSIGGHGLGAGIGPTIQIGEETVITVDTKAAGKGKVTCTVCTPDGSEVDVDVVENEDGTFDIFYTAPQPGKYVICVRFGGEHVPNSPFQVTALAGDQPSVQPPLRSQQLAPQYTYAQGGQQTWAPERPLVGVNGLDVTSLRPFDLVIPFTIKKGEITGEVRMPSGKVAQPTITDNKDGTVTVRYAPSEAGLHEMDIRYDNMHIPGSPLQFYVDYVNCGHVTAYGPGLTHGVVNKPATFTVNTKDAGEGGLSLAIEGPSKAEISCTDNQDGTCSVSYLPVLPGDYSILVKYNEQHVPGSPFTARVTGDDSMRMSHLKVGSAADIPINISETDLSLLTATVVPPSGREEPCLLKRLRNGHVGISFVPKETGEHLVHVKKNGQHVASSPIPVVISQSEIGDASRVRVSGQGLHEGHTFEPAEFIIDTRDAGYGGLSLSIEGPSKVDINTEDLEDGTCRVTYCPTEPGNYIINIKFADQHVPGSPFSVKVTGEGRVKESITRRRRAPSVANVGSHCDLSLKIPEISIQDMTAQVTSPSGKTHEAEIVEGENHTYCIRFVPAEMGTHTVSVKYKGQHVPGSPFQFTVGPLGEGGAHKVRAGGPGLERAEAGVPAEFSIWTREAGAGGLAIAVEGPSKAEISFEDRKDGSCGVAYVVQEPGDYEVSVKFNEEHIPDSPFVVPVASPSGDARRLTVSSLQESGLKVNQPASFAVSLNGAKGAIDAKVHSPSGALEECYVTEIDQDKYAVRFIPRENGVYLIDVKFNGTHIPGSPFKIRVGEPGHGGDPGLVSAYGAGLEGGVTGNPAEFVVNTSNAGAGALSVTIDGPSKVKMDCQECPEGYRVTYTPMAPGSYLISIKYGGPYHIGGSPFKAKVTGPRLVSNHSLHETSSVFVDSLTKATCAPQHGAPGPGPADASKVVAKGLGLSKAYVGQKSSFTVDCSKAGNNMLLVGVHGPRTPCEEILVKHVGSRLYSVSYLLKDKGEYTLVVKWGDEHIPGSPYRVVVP
GST-filamin A fragment F7 (repeats 20-23, 2132-2516 aa): residues 2132-2516 of P21333
GST-filamin A fragment F8 (repeat 24, 2517-2648 aa): residues 2517-2647 of P21333
UniProt Q9Y266: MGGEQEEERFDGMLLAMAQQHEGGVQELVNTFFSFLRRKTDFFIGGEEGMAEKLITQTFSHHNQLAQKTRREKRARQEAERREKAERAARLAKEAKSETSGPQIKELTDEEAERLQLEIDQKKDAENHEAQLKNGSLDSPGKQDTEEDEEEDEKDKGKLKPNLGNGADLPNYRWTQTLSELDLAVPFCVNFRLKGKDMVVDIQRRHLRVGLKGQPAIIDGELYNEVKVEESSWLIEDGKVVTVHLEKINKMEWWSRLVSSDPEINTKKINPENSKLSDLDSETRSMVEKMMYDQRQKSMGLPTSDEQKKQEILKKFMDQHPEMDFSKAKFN

Experiments:
[1] = molecular target: GST-filamin A fragment F8 (repeat 24, 2517-2648 aa) (UniProt P21333); assay: pull-down; purified GST-tagged filamin A fragments incubated with purified His-NudC; immunoblotting; both purified
[2] = molecular target: GST-filamin A fragment F7 (repeats 20-23, 2132-2516 aa) (UniProt P21333); assay: as above
[3] = molecular target: Flag-NudC (human) (UniProt Q9Y266); assay: co-IP; RPE-1 cells transfected with a tagged protein; extracts in TBSN buffer (20 mM Tris pH 8.0, 150 mM NaCl, 0.5% NP-40, 5 mM EGTA, 1.5 mM EDTA); IP with anti-Flag or anti-Myc antibodies, western blotting of the endogenous partner
[4] = molecular target: GST-NudC (human) (UniProt Q9Y266); assay: pull-down; purified GST or GST-NudC incubated with RPE-1 cell lysates; immunoblotting with anti-filamin A antibody; only the target purified
[5] = molecular target: Myc-filamin A (UniProt P21333); assay: co-IP; RPE-1 cells transfected with a tagged protein; extracts in TBSN buffer (20 mM Tris pH 8.0, 150 mM NaCl, 0.5% NP-40, 5 mM EGTA, 1.5 mM EDTA); IP with anti-Flag or anti-Myc antibodies, western blotting of the endogenous partner
[6] = molecular target: Filamin A, endogenous in RPE-1 cells (human (endogenous in RPE-1)) (UniProt P21333); assay: co-IP; total lysates of untransfected cells (RPE-1) in TBSN buffer; IP of endogenous proteins with the indicated antibodies or IgG, western blotting
[7] = molecular target: Filamin A, endogenous in RPE-1 cells (human (endogenous in RPE-1)) (UniProt P21333); assay: as above; remark: listed apart in the source

binding [1]: binds
binding [2]: binds
Molecule: His-NudC (from UniProt Q9Y266 1-331)

binding [3]: binds
binding [4]: binds
Molecule: Filamin A, endogenous in RPE-1 cells (from UniProt P21333 1-2647)

binding [5]: binds
binding [6]: binds
Molecule: Nuclear distribution gene C (NudC), endogenous in RPE-1 cells (from UniProt Q9Y266 1-331)

binding [7]: binds
B1: NudC-like protein (NudCL), endogenous (protein, UniProt Q8IVD9 1-361)
chain: METGAAELYDQALLGILQHVGNVQDFLRVLFGFLYRKTDFYRLLRHPSDRMGFPPGAAQALVLQVFKTFDHMARQDDEKRRQELEEKIRRKEEEEAKTVSAAAAEKEPVPVPVQEIEIDSTTELDGHQEVEKVQPPGPVKEMAHGSQEAEAPGAVAGAAEVPREPPILPRIQEQFQKNPDSYNGAVRENYTWSQDYTDLEVRVPVPKHVVKGKQVSVALSSSSIRVAMLEENGERVLMEGKLTHKINTESSLWSLEPGKCVLVNLSKVGEYWWNAILEGEEPIDIDKINKERSMATVDEEEQAVLDRLTFDYHQKLQGKPQSHELKVHEMLKKGWDAEGSPFRGQRFDPAMFNISPGAVQF

binding [7]: binds
B2: NudC-like protein 2 (NudCL2), endogenous (protein, UniProt Q8WVJ2 1-157)
chain: MSAPFEERSGVVPCGTPWGQWYQTLEEVFIEVQVPPGTRAQDIQCGLQSRHVALSVGGREILKGKLFDSTIADEGTWTLEDRKMVRIVLTKTKRDAANCWTSLLESEYAADPWVQDQMQRKLTLERFQKENPGFDFSGAEISGNYTKGGPDFSNLEK
